Test results taken from paper PMC11344719 (Amino Acids, 2024).
Square brackets hold non-standard residues; d marks the D form. Phe(4-CH2NH2) = NCc1ccc(C[C@H](N)C(=O)O)cc1; hArg = N=C(N)NCCCC[C@H](N)C(=O)O; Cit = NC(=O)NCCC[C@H](N)C(=O)O; Agb = N=C(N)NCC[C@H](N)C(=O)O; Agp = N=C(N)NC[C@H](N)C(=O)O; Dab = NCC[C@H](N)C(=O)O; Dap = NC[C@H](N)C(=O)O

What was measured:
[1] = general procedure: Fmoc solid-phase peptide synthesis; Fmoc-Arg(Pbf)-Wang resin; DIC/Oxyma; conditions: whole synthesis, 215 nm
[2] = general procedure: Fmoc solid-phase peptide synthesis; 2-Chlorotrityl chloride resin; DIC/Oxyma; conditions: whole synthesis, 215 nm

Row | Substance | final HPLC purity [1] [%] | final HPLC purity [2] [%]
1 | H-K(hArg)[Dap]PR-OH | 99.4 | –
2 | H-K(hArg)[Dab]P[Phe(4-CH2NH2)]-OH (SMILES N=C(N)NCCCC[C@H](N)C(=O)NCCCC[C@H](N)C(=O)N[C@@H](CCN)C(=O)N1CCC[C@H]1C(=O)N[C@@H](Cc1ccc(CN)cc1)C(=O)O) | – | 98.0
3 | H-K(hArg)[Dap]P[hArg]-OH | – | 98.7
4 | H-K(hArg)[Dap]P[Cit]-OH | – | 98.6
5 | H-K(hArg)[Dap]P[Agp]-OH | – | 98.7
6 | H-K(hArg)[Dap]P[Phe(4-CH2NH2)]-OH (SMILES N=C(N)NCCCC[C@H](N)C(=O)NCCCC[C@H](N)C(=O)N[C@@H](CN)C(=O)N1CCC[C@H]1C(=O)N[C@@H](Cc1ccc(CN)cc1)C(=O)O) | – | 98.4
7 | H-K(hArg)[Dab]P[Agb]-OH | – | 98.4
8 | H-K(hArg)[Dab]P[hArg]-OH | – | 99.0
9 | H-K(hArg)[Dab]PR-OH | 99.3 | –
10 | H-K(hArg)[Dap]P[Agb]-OH | – | 99.1
11 | H-K(hArg)[Dab]P[Cit]-OH | – | 98.8
12 | H-K(hArg)[Dab]P[Agp]-OH | – | 98.3
